Source: article PMC9769526
Results are given in words; binding and its absence hold for the method and conditions named. Binding seen in cells or lysates may run through a third protein. Some entries that bind do so weakly or less than the wild type.

By UniProt entry, the sequences of proteins in these tests, tags left out.
UniProt Q4WN10: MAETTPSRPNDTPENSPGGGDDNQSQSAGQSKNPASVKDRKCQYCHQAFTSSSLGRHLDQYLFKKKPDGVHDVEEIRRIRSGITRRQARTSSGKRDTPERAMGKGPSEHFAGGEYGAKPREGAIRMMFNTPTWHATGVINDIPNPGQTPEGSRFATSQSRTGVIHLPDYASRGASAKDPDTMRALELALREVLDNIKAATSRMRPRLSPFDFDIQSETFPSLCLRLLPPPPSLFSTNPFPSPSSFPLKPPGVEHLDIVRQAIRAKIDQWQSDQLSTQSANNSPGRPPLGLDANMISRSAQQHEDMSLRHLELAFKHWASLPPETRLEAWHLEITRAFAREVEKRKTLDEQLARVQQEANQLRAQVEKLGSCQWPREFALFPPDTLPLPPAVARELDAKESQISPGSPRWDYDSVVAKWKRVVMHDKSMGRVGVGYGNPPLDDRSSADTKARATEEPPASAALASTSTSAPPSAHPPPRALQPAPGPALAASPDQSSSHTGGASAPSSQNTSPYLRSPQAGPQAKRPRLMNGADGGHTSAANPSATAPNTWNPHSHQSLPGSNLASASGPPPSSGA
UniProt Q4WI89: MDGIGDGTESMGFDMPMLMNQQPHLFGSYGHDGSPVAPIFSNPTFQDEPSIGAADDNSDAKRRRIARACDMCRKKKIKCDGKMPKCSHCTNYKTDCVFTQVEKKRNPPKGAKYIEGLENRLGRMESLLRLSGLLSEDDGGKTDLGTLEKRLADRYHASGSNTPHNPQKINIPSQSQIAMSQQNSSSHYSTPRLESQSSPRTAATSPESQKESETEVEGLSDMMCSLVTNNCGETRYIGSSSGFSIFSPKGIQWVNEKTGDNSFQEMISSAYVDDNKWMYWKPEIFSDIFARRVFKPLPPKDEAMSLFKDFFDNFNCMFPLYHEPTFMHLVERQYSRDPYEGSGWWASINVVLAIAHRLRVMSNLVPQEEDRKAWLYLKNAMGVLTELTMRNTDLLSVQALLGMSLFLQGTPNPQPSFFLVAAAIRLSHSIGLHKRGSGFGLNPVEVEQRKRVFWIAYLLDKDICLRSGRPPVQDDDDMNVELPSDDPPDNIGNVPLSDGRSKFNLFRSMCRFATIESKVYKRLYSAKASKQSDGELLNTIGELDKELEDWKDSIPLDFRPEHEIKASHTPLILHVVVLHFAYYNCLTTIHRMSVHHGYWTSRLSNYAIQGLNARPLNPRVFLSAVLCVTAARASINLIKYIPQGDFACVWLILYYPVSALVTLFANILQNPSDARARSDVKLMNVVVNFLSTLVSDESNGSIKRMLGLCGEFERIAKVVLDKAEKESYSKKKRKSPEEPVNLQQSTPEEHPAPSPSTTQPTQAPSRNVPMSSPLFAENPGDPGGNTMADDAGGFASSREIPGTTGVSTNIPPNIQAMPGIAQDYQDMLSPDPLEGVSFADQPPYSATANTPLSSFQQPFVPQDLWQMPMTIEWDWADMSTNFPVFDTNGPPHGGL

Target: NcaA-3×HA (Aspergillus fumigatus) (UniProt Q4WN10)
Assay: co-IP; native extracts of hspA-atrR-TAP strains with or without ncaA-3×HA; immunoprecipitation with anti-HA monoclonal antibody and protein G Dynabeads at 4°C, washes W250 and W150; Western blot with anti-AtrR and anti-HA

With “AtrR-TAP fusion protein (full-length AtrR fused at its C terminus to the tandem affinity purification moiety) (from UniProt Q4WI89 1-895)” the binding was “binds”.
